Measurements taken from paper PMC4742183.
Results are given in words; binding and its absence hold for the method and conditions named. Binding seen in cells or lysates may run through a third protein. Some results given as binding are weak or reduced against the parent protein; the word gives no strength. Each block holds one substance with its values, some of them ahead of it.

Chains of the proteins cited; added tags and fusions are not shown.
UniProt P56693: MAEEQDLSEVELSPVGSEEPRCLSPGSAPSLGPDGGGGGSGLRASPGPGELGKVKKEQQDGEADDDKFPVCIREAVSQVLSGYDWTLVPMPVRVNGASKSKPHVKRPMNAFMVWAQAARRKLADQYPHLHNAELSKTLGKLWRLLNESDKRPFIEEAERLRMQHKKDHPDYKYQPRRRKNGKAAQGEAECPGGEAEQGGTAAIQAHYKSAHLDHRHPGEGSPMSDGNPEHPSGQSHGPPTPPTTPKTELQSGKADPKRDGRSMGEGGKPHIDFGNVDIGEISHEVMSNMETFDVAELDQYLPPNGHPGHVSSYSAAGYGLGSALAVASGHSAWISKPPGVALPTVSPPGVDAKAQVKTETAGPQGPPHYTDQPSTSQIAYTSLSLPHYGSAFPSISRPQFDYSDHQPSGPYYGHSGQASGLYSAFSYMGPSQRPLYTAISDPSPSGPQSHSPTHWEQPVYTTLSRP
UniProt Q969H0: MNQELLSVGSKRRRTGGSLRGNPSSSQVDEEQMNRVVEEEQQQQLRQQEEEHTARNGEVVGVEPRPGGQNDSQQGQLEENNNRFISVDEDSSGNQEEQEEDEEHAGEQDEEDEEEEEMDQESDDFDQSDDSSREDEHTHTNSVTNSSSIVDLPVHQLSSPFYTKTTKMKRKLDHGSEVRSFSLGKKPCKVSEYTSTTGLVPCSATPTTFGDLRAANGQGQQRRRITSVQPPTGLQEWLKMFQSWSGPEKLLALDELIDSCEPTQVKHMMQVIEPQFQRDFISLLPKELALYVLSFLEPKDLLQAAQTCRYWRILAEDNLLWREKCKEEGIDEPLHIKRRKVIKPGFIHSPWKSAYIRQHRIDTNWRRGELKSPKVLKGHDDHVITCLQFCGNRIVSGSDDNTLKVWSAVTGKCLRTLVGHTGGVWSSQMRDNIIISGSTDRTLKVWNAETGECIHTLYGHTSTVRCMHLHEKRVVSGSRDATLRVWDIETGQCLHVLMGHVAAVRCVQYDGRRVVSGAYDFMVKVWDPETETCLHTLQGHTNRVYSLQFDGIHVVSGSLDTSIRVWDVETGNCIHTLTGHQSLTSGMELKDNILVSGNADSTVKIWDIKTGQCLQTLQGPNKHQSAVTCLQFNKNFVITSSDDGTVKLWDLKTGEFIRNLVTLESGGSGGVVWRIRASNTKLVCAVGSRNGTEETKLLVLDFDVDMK
UniProt P49841: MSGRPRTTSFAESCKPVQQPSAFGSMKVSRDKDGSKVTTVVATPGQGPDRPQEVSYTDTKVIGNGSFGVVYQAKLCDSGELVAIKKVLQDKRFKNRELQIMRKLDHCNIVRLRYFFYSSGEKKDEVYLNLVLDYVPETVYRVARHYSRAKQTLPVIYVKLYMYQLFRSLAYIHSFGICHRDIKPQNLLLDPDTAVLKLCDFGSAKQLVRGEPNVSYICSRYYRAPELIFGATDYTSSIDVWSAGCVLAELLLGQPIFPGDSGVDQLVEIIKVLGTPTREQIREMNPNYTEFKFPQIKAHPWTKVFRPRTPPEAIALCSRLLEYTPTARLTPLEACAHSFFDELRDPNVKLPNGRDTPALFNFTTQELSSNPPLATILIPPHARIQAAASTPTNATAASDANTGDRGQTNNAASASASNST

What was measured:
[1] = molecular target: SOX10, endogenous in MM200 melanoma cells (human (endogenous in MM200)) (UniProt P56693); experiment: co-IP; endogenous proteins, MM200 melanoma cell lysate in RIPA buffer; anti-Fbxw7α or anti-SOX10 (IgG as control) 2 h at 4°C, then protein A/G-agarose; Western blot
Myc-tagged Fbxw7α = Myc-tagged Fbxw7α (UniProt Q969H0); experiment: co-IP; 293T cells co-transfected for 24 h, lysed in RIPA buffer (50 mM Tris-HCl pH 8.0, 100 mM NaCl, 0.5% Nonidet P-40, 5 mM EDTA, 2 mM DTT); anti-HA or anti-Myc agarose 2 h to overnight at 4°C, four washes with RIPA buffer; Western blot
[2] = molecular target: HA-tagged SOX10 (SRY-related HMG box-containing factor 10) (UniProt P56693); experiment: as above
[3] = molecular target: Fbxw7α, endogenous in MM200 melanoma cells (human (endogenous in MM200)) (UniProt Q969H0); experiment: co-IP; endogenous proteins, MM200 melanoma cell lysate in RIPA buffer; anti-Fbxw7α or anti-SOX10 (IgG as control) 2 h at 4°C, then protein A/G-agarose; Western blot

Substance: HA-tagged SOX10 (SRY-related HMG box-containing factor 10) (from UniProt P56693 1-466)
binding (Myc-tagged Fbxw7α): binds

Substance: Myc-tagged Fbxw7α (from UniProt Q969H0 1-707)
binding [2]: binds

Substance: SOX10, endogenous in MM200 melanoma cells (from UniProt P56693 1-466)
binding [3]: binds

Results, then the substance that gave them:

binding [1]: binds
Substance: Fbxw7α, endogenous in MM200 melanoma cells (from UniProt Q969H0 1-707)

binding [2]: binds
Substance: Myc-GSK3β (glycogen synthase kinase 3β) (from UniProt P49841 1-420) (enzyme)
